According to doi:10.1101/2021.02.24.432555:
Where two headings read alike, the source gives them in different places. Results are given in words; binding and its absence hold for the method and conditions named. Binding seen in cells or lysates may run through a third protein. Some results given as binding are weak or reduced against the parent protein; the word gives no strength.

By UniProt entry, the sequences of proteins in these tests, tags left out.
UniProt P18848: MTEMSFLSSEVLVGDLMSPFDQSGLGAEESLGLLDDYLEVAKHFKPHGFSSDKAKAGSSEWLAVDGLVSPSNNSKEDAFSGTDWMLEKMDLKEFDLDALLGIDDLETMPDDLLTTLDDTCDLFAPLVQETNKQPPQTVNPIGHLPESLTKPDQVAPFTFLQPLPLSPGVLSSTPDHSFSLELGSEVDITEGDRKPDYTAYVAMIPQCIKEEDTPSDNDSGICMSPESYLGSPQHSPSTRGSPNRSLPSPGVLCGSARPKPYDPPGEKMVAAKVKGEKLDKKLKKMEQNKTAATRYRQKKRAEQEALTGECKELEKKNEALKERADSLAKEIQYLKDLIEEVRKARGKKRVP
UniProt Q15853: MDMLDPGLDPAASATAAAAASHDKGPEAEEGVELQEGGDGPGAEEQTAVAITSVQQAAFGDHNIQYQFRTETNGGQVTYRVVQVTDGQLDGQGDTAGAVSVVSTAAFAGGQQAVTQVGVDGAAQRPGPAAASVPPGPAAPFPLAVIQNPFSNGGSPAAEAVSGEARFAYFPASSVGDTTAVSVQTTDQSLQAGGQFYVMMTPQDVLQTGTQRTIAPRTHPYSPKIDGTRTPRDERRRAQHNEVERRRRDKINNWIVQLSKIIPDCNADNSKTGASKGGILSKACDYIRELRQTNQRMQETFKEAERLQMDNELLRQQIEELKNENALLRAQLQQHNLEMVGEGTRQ
UniProt Q13547: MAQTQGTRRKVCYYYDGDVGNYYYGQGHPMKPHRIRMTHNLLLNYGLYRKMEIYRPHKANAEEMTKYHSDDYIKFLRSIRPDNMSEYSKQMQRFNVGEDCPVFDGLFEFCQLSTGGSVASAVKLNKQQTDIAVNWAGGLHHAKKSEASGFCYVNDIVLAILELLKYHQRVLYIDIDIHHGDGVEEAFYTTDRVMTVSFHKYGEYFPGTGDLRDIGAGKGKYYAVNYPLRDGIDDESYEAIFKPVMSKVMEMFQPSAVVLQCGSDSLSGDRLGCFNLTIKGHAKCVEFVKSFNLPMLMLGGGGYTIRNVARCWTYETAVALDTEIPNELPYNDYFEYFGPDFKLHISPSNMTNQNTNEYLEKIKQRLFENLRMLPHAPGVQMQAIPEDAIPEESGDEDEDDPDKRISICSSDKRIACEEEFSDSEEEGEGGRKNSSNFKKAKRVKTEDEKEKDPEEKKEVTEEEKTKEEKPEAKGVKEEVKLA
UniProt Q92769: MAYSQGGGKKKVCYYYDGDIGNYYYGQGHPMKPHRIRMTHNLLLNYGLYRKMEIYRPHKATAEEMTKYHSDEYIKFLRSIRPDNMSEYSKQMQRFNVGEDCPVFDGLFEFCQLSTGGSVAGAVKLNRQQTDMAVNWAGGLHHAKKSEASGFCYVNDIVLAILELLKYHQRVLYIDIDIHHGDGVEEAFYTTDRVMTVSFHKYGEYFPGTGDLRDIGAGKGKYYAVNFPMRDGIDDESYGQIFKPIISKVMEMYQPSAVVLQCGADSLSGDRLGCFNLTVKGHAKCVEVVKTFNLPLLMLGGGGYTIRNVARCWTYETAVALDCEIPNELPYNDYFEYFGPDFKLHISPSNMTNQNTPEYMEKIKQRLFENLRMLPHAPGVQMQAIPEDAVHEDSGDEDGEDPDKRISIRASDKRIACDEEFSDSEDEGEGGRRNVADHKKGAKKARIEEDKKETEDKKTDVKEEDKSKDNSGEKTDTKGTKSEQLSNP

T1: XBP1s (human (endogenous in HeLa)) (UniProt P17861)
T1 sequence: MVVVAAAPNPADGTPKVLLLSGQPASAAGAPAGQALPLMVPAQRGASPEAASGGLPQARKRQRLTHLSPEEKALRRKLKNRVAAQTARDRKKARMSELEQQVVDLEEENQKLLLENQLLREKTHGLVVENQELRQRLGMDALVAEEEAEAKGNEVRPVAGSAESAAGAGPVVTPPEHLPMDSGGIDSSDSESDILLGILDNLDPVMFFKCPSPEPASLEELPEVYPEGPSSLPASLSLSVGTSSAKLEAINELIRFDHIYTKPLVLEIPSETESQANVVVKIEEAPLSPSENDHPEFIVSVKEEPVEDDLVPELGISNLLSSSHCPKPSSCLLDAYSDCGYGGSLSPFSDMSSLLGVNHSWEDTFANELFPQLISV

B1: ING2 (protein, UniProt Q9H160 1-280)
chain: MLGQQQQQLYSSAALLTGERSRLLTCYVQDYLECVESLPHDMQRNVSVLRELDNKYQETLKEIDDVYEKYKKEDDLNQKKRLQQLLQRALINSQELGDEKIQIVTQMLELVENRARQMELHSQCFQDPAESERASDKAKMDSSQPERSSRRPRRQRTSESRDLCHMANGIEDCDDQPPKEKKSKSAKKKKRSKAKQEREASPVEFAIDPNEPTYCLCNQVSYGEMIGCDNEQCPIEWFHFSCVSLTYKPKGKWYCPKCRGDNEKTMDKSTEKTKKDRRSR

How the values were obtained:
Test in all cases: co-IP
[1] = molecular target: T1, XBP1s (human (endogenous in HeLa))
[2] = molecular target: p97/VCP (human (endogenous in HeLa)) (UniProt P55072)
[3] = molecular target: ATF4 (human (endogenous in HeLa)) (UniProt P18848)
[4] = molecular target: USF2 (human (endogenous in HeLa)) (UniProt Q15853)
[5] = molecular target: HDAC1 (human (endogenous in HeLa)) (UniProt Q13547)
[6] = molecular target: HDAC2 (human (endogenous in HeLa)) (UniProt Q92769)
[7] = molecular target: T1, XBP1s (human (endogenous in HeLa)); remark: listed apart in the source
[8] = molecular target: p97/VCP (human (endogenous in HeLa)) (UniProt P55072); remark: listed apart in the source
[9] = molecular target: ATF4 (human (endogenous in HeLa)) (UniProt P18848); remark: listed apart in the source

Row | Molecule | binding [1] | binding [2] | binding [3] | binding [4] | binding [5] | binding [6] | binding [7] | binding [8] | binding [9]
1 | HDAC1 (from UniProt Q13547 1-482) | binds | binds | binds | binds |  |  |  |  | 
2 | p97/VCP (from UniProt P55072 1-806) | binds |  | binds | binds | binds | binds |  |  | 
3 | B1 |  |  |  |  |  |  | binds | binds | no binding
